The values below come from paper PMC3798195.

Chains of the proteins cited; added tags and fusions are not shown. Lines headed by an entry give the natural chain unless they say otherwise; changes in a name come on top.
UniProt O00429: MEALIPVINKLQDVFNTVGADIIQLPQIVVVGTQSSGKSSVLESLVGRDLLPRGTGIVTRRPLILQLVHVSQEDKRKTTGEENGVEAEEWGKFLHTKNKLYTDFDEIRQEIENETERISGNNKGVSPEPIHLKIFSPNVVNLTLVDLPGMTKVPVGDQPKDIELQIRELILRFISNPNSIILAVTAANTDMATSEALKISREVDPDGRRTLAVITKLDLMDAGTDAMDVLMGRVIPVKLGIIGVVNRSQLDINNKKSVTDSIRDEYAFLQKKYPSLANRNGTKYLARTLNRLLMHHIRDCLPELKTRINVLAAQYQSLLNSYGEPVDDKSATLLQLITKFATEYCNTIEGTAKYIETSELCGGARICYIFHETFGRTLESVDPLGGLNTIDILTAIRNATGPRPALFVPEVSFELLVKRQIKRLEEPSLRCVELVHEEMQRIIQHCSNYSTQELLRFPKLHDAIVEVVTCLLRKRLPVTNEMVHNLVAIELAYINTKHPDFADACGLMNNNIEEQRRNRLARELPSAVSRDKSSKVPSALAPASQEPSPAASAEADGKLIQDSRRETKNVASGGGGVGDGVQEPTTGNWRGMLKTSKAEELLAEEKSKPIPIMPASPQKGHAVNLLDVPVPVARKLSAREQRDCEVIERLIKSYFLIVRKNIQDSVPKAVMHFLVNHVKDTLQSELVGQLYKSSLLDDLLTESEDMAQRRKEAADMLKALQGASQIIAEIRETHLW

Results are given in words; binding and its absence hold for the method and conditions named. In cells and extracts the contact can be indirect. Tags and fused reporters may be left off the sequences shown.

This test has as its target T1, FLAG-Pex11pβ (UniProt O96011).
T1 sequence: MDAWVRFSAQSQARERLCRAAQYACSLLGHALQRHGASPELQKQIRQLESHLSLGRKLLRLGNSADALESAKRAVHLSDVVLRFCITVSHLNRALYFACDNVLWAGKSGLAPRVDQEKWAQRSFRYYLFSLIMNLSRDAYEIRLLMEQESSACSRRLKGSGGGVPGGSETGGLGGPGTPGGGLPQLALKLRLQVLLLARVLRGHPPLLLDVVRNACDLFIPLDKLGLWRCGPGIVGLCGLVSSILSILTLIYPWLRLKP
Briefly: co-IP; HeLa cells transfected for 24 h (after control dsRNA or FIS1 dsRNA where used), treated with 1 mM DSP cross-linker, lysed in 20 mM Hepes-KOH pH 7.4, 150 mM NaCl, 1% CHAPS; immunoprecipitation with anti-FLAG IgG-conjugated agarose, immunoblot for HA, Mff, FLAG.

On to “HA2-DLP1 A395D (from UniProt O00429 1-736)”, for which the binding result is given as “no binding”.
“HA2-DLP1 G363D (from UniProt O00429 1-736)”: the binding result was “no binding”.
